Reference: the supplement of paper PMC4604168 (melanoma cell lines)
This is one part of the list. Single values are uncertain, as repeats are few or missing.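 Cells were imaged in 1,536-well plates, and nuclei stained with an antibody against cleaved PARP were counted against all DNA-stained nuclei to give the apoptosis fraction. Screening doses were chosen to leave most cells alive, and resting and induced cleaved-PARP levels differ strongly between cell lines.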

Each molecule was assayed on CBRC014 (line from a melanoma biopsy) (assay: cleaved PARP positive nuclei fraction relative to DMSO control; melanoma cells; higher = more apoptosis). Conditions: library dose: low library concentration; 72 h.

Q: For `CCCCCCCCCCCCCCCCCCOP(=O)([O-])OC1CC[N+](C)(C)CC1` [Perifosine] + NCC(=O)Nc1ccc(-n2nc(C(F)(F)F)cc2-c2ccc3c(ccc4ccccc43)c2)cc1 [OSU03012] (first compound 0.4 µM, partner dose 1 µM), which “cleaved PARP positive nuclei fraction” value is on record?
A: Its value is 78.5%.

Q: For `CCCCCCCCCCCCCCCCCCOP(=O)([O-])OC1CC[N+](C)(C)CC1` [Perifosine] + O=C(Nc1cccc(Cl)c1)Nc1ncc(CCNc2ncnc3ccsc23)s1 [SNS314] (first compound 0.4 µM, partner dose 0.0008 µM), which “cleaved PARP positive nuclei fraction” value is on record?
A: The value was 105%.

Q: How did the “cleaved PARP positive nuclei fraction” value turn out when `O=C(/C=C/c1cccnc1)NCCCCC1CCN(C(=O)c2ccccc2)CC1` + Cc1cc(N2CCOCC2)cc2[nH]c(-c3c(NC[C@@H](O)c4cccc(Cl)c4)cc[nH]c3=O)nc12 [BMS536924] (first compound 0.01 µM, partner dose 0.2 µM) was run?
A: Its value is 91.6%.

Q: `COc1cc([C@@H]2c3cc4c(cc3[C@@H](O[C@@H]3O[C@@H]5CO[C@@H](C)O[C@H]5[C@H](O)[C@H]3O)[C@H]3COC(=O)[C@H]23)OCO4)cc(OC)c1O` [etoposide] + OCCn1cc(-c2cnc3nnn(Cc4ccc5ncccc5c4)c3n2)cn1 [PF04217903] (first compound 0.02 µM, partner dose 1 µM) was tested. Which “cleaved PARP positive nuclei fraction” value did it give?
A: Its value is 93.3%.

Q: With `COc1cc([C@@H]2c3cc4c(cc3[C@@H](O[C@@H]3O[C@@H]5CO[C@@H](C)O[C@H]5[C@H](O)[C@H]3O)[C@H]3COC(=O)[C@H]23)OCO4)cc(OC)c1O` [etoposide] + Cc1cc(N2CCOCC2)cc2[nH]c(-c3c(NC[C@@H](O)c4cccc(Cl)c4)cc[nH]c3=O)nc12 [BMS536924] (first compound 0.02 µM, partner dose 0.2 µM) as the molecule, how does the “cleaved PARP positive nuclei fraction” value read?
A: Its value is 87.6%.

Q: Which “cleaved PARP positive nuclei fraction” value does the source give for `O=c1[nH]nc(Sc2ncc([N+](=O)[O-])s2)n1-c1ccc2c(c1)OCCO2` + O=C(CCCCCCC(=O)Nc1ccccc1)NO [vorinostat] (first compound 0.2 µM, partner dose 0.08 µM) here?
A: Its value is 81.2%.

Q: For `Cc1ccc(Nc2nccc(N(C)c3ccc4c(C)n(C)nc4c3)n2)cc1S(N)(=O)=O` [Pazopanib] + CO[C@@H]1[C@H](N(C)C(=O)c2ccccc2)C[C@H]2O[C@]1(C)n1c3ccccc3c3c4c(c5c6ccccc6n2c5c31)C(=O)NC4 [Midostaurin] (first compound 0.4 µM, partner dose 0.08 µM), which “cleaved PARP positive nuclei fraction” value is on record?
A: Its value is 110%.

Q: With `N#CC[C@H](C1CCCC1)n1cc(-c2ncnc3[nH]ccc23)cn1` [ruxolitinib] + Cc1cc(N2CCOCC2)cc2[nH]c(-c3c(NC[C@@H](O)c4cccc(Cl)c4)cc[nH]c3=O)nc12 [BMS536924] (first compound 1 µM, partner dose 0.2 µM) as the molecule, how does the “cleaved PARP positive nuclei fraction” value read?
A: Its value is 72.6%.

Q: `COc1cc([C@@H]2c3cc4c(cc3[C@@H](O[C@@H]3O[C@@H]5CO[C@@H](C)O[C@H]5[C@H](O)[C@H]3O)[C@H]3COC(=O)[C@H]23)OCO4)cc(OC)c1O` [etoposide] + CO[C@@H]1[C@H](N(C)C(=O)c2ccccc2)C[C@H]2O[C@]1(C)n1c3ccccc3c3c4c(c5c6ccccc6n2c5c31)C(=O)NC4 [Midostaurin] (first compound 0.02 µM, partner dose 0.08 µM) was tested. Which “cleaved PARP positive nuclei fraction” value did it give?
A: The value was 99.4%.

Q: `COc1cc([C@@H]2c3cc4c(cc3[C@@H](O[C@@H]3O[C@@H]5CO[C@@H](C)O[C@H]5[C@H](O)[C@H]3O)[C@H]3COC(=O)[C@H]23)OCO4)cc(OC)c1O` [etoposide] + O=C(Nc1cccc(Cl)c1)Nc1ncc(CCNc2ncnc3ccsc23)s1 [SNS314] (first compound 0.02 µM, partner dose 0.0008 µM) was tested. Which “cleaved PARP positive nuclei fraction” value did it give?
A: The value was 71.5%.

Q: With `CCCCCCCCCCCCCCCCCCOP(=O)([O-])OC1CC[N+](C)(C)CC1` [Perifosine] + NC(=O)Nc1cc(-c2cccc(F)c2)sc1C(=O)N[C@H]1CCCNC1 [AZD7762] (first compound 0.4 µM, partner dose 0.02 µM) as the molecule, how does the “cleaved PARP positive nuclei fraction” value read?
A: The value was 87.6%.

Q: How did the “cleaved PARP positive nuclei fraction” value turn out when `O=C(/C=C/c1cccnc1)NCCCCC1CCN(C(=O)c2ccccc2)CC1` + CO[C@@H]1[C@H](N(C)C(=O)c2ccccc2)C[C@H]2O[C@]1(C)n1c3ccccc3c3c4c(c5c6ccccc6n2c5c31)C(=O)NC4 [Midostaurin] (first compound 0.01 µM, partner dose 0.08 µM) was run?
A: The value was 107%.

Q: How did the “cleaved PARP positive nuclei fraction” value turn out when `CC[C@]1(O)C[C@H]2CN(CCc3c([nH]c4ccccc34)[C@@](C(=O)OC)(c3cc4c(cc3OC)N(C=O)[C@H]3[C@@](O)(C(=O)OC)[C@H](OC(C)=O)[C@]5(CC)C=CCN6CC[C@]43[C@@H]65)C2)C1` [vincristine] + CN(C)S(=O)(=O)c1ccc2c(c1)/C(=C/c1cc3c([nH]1)CCCC3)C(=O)N2 [SU6656] (first compound 0.0001 µM, partner dose 0.4 µM) was run?
A: The value was 83.5%.

Q: With `O=C(/C=C/c1cccnc1)NCCCCC1CCN(C(=O)c2ccccc2)CC1` + CN(C)S(=O)(=O)c1ccc2c(c1)/C(=C/c1cc3c([nH]1)CCCC3)C(=O)N2 [SU6656] (first compound 0.01 µM, partner dose 0.4 µM) as the molecule, how does the “cleaved PARP positive nuclei fraction” value read?
A: The value was 92.3%.

Q: For `Cc1ccc(Nc2nccc(N(C)c3ccc4c(C)n(C)nc4c3)n2)cc1S(N)(=O)=O` [Pazopanib] + NC(=O)Nc1cc(-c2cccc(F)c2)sc1C(=O)N[C@H]1CCCNC1 [AZD7762] (first compound 0.4 µM, partner dose 0.02 µM), which “cleaved PARP positive nuclei fraction” value is on record?
A: The value was 123%.

Q: Which “cleaved PARP positive nuclei fraction” value does the source give for `Cc1cn(-c2cc(NC(=O)c3ccc(C)c(Nc4nccc(-c5cccnc5)n4)c3)cc(C(F)(F)F)c2)cn1` [nilotinib] + NC(=O)Nc1cc(-c2cccc(F)c2)sc1C(=O)N[C@H]1CCCNC1 [AZD7762] (first compound 0.2 µM, partner dose 0.02 µM) here?
A: Its value is 74.7%.

Q: With `CCCCCCCCCCCCCCCCCCOP(=O)([O-])OC1CC[N+](C)(C)CC1` [Perifosine] + C[C@@H]1CCN(C(=O)CC#N)C[C@@H]1N(C)c1ncnc2[nH]ccc12 [CP690550] (first compound 0.4 µM, partner dose 1 µM) as the molecule, how does the “cleaved PARP positive nuclei fraction” value read?
A: The value was 88.1%.

Q: `N#CC[C@H](C1CCCC1)n1cc(-c2ncnc3[nH]ccc23)cn1` [ruxolitinib] + C[C@@H]1CCN(C(=O)CC#N)C[C@@H]1N(C)c1ncnc2[nH]ccc12 [CP690550] (first compound 1 µM, partner dose 1 µM) was tested. Which “cleaved PARP positive nuclei fraction” value did it give?
A: The value was 83.3%.

Q: How did the “cleaved PARP positive nuclei fraction” value turn out when `COc1cc([C@@H]2c3cc4c(cc3[C@@H](O[C@@H]3O[C@@H]5CO[C@@H](C)O[C@H]5[C@H](O)[C@H]3O)[C@H]3COC(=O)[C@H]23)OCO4)cc(OC)c1O` [etoposide] + Cn1cncc1[C@@](N)(c1ccc(Cl)cc1)c1ccc2c(c1)c(-c1cccc(Cl)c1)cc(=O)n2C [tipifarnib] (first compound 0.02 µM, partner dose 0.01 µM) was run?
A: Its value is 101%.

Q: For `N#CC[C@H](C1CCCC1)n1cc(-c2ncnc3[nH]ccc23)cn1` [ruxolitinib] + Cc1ccc(NC(=O)c2cccc(N(C)C)c2)cc1NC(=O)c1ccc(O)cc1 [ZM336372] (first compound 1 µM, partner dose 2 µM), which “cleaved PARP positive nuclei fraction” value is on record?
A: Its value is 117%.

Q: How did the “cleaved PARP positive nuclei fraction” value turn out when `N#CC[C@H](C1CCCC1)n1cc(-c2ncnc3[nH]ccc23)cn1` [ruxolitinib] + COc1cc2c(Oc3ccc4[nH]c(C)cc4c3F)ncnc2cc1OCCCN1CCCC1 [cediranib] (first compound 1 µM, partner dose 0.4 µM) was run?
A: The value was 69.3%.

Q: With `O=c1[nH]nc(Sc2ncc([N+](=O)[O-])s2)n1-c1ccc2c(c1)OCCO2` + O=C(O)c1ccc(-c2c[nH]c3ncc(-c4ccccc4)cc23)cc1C1CCCC1 [GSK650394] (first compound 0.2 µM, partner dose 0.16 µM) as the molecule, how does the “cleaved PARP positive nuclei fraction” value read?
A: The value was 84.2%.

Q: How did the “cleaved PARP positive nuclei fraction” value turn out when `Cc1cc(Nc2cc(N3CCN(C)CC3)nc(Sc3ccc(NC(=O)C4CC4)cc3)n2)n[nH]1` [Tozasertib] + COc1cc2c(Oc3ccc4[nH]c(C)cc4c3F)ncnc2cc1OCCCN1CCCC1 [cediranib] (first compound 0.006 µM, partner dose 0.4 µM) was run?
A: The value was 82.4%.

Q: With `O=c1[nH]nc(Sc2ncc([N+](=O)[O-])s2)n1-c1ccc2c(c1)OCCO2` + NCC(=O)Nc1ccc(-n2nc(C(F)(F)F)cc2-c2ccc3c(ccc4ccccc43)c2)cc1 [OSU03012] (first compound 0.2 µM, partner dose 1 µM) as the molecule, how does the “cleaved PARP positive nuclei fraction” value read?
A: Its value is 66.9%.

Q: For `N#CC[C@H](C1CCCC1)n1cc(-c2ncnc3[nH]ccc23)cn1` [ruxolitinib] + CN(C)S(=O)(=O)c1ccc2c(c1)/C(=C/c1cc3c([nH]1)CCCC3)C(=O)N2 [SU6656] (first compound 1 µM, partner dose 0.4 µM), which “cleaved PARP positive nuclei fraction” value is on record?
A: Its value is 78.5%.

Q: For `CC[C@]1(O)C[C@H]2CN(CCc3c([nH]c4ccccc34)[C@@](C(=O)OC)(c3cc4c(cc3OC)N(C=O)[C@H]3[C@@](O)(C(=O)OC)[C@H](OC(C)=O)[C@]5(CC)C=CCN6CC[C@]43[C@@H]65)C2)C1` [vincristine] + O=C(Nc1cccc(Cl)c1)Nc1ncc(CCNc2ncnc3ccsc23)s1 [SNS314] (first compound 0.0001 µM, partner dose 0.0008 µM), which “cleaved PARP positive nuclei fraction” value is on record?
A: The value was 91%.
